In the supplement of paper PMC12067093, “Discovery and optimisation of a covalent ligand for TRIM25 and its application to targeted protein ubiquitination” (Chemical Science, 2025):
This is one part of the list.

Chains of the proteins cited; added tags and fusions are not shown. Lines headed by an entry give the natural chain unless they say otherwise; changes in a name come on top.
UniProt Q6UXN9, whole entry, looked up: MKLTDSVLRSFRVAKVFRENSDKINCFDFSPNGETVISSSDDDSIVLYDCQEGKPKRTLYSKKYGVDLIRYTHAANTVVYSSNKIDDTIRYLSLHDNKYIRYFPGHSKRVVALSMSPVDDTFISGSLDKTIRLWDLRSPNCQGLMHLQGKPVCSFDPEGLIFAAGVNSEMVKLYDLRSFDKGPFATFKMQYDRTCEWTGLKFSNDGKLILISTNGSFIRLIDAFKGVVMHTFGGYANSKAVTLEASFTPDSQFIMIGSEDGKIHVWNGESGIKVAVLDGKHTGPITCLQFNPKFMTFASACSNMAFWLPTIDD
UniProt Q01831: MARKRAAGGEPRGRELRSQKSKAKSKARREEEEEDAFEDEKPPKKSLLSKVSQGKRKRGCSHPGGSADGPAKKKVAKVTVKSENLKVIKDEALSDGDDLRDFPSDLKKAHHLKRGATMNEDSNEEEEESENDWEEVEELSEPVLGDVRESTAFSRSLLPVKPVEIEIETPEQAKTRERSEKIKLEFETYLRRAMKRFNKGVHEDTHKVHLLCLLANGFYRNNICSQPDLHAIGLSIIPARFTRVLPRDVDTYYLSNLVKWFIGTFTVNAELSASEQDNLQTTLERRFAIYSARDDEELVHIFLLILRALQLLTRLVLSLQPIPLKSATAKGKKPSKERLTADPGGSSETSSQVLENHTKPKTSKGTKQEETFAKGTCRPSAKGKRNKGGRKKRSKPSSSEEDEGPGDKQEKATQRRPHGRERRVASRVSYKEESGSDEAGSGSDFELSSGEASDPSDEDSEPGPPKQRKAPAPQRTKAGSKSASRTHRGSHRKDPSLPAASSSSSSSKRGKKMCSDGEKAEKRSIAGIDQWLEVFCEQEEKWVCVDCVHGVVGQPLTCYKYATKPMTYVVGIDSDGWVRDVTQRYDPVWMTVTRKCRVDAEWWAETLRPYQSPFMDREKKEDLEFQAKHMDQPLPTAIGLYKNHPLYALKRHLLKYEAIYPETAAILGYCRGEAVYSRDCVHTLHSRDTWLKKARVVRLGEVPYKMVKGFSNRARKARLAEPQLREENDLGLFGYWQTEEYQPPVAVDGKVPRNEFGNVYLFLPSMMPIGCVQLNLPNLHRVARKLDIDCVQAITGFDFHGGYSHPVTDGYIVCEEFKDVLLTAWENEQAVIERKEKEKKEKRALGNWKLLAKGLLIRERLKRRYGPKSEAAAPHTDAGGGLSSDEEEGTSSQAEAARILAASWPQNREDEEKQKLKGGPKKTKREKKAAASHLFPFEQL
UniProt Q6ZS81: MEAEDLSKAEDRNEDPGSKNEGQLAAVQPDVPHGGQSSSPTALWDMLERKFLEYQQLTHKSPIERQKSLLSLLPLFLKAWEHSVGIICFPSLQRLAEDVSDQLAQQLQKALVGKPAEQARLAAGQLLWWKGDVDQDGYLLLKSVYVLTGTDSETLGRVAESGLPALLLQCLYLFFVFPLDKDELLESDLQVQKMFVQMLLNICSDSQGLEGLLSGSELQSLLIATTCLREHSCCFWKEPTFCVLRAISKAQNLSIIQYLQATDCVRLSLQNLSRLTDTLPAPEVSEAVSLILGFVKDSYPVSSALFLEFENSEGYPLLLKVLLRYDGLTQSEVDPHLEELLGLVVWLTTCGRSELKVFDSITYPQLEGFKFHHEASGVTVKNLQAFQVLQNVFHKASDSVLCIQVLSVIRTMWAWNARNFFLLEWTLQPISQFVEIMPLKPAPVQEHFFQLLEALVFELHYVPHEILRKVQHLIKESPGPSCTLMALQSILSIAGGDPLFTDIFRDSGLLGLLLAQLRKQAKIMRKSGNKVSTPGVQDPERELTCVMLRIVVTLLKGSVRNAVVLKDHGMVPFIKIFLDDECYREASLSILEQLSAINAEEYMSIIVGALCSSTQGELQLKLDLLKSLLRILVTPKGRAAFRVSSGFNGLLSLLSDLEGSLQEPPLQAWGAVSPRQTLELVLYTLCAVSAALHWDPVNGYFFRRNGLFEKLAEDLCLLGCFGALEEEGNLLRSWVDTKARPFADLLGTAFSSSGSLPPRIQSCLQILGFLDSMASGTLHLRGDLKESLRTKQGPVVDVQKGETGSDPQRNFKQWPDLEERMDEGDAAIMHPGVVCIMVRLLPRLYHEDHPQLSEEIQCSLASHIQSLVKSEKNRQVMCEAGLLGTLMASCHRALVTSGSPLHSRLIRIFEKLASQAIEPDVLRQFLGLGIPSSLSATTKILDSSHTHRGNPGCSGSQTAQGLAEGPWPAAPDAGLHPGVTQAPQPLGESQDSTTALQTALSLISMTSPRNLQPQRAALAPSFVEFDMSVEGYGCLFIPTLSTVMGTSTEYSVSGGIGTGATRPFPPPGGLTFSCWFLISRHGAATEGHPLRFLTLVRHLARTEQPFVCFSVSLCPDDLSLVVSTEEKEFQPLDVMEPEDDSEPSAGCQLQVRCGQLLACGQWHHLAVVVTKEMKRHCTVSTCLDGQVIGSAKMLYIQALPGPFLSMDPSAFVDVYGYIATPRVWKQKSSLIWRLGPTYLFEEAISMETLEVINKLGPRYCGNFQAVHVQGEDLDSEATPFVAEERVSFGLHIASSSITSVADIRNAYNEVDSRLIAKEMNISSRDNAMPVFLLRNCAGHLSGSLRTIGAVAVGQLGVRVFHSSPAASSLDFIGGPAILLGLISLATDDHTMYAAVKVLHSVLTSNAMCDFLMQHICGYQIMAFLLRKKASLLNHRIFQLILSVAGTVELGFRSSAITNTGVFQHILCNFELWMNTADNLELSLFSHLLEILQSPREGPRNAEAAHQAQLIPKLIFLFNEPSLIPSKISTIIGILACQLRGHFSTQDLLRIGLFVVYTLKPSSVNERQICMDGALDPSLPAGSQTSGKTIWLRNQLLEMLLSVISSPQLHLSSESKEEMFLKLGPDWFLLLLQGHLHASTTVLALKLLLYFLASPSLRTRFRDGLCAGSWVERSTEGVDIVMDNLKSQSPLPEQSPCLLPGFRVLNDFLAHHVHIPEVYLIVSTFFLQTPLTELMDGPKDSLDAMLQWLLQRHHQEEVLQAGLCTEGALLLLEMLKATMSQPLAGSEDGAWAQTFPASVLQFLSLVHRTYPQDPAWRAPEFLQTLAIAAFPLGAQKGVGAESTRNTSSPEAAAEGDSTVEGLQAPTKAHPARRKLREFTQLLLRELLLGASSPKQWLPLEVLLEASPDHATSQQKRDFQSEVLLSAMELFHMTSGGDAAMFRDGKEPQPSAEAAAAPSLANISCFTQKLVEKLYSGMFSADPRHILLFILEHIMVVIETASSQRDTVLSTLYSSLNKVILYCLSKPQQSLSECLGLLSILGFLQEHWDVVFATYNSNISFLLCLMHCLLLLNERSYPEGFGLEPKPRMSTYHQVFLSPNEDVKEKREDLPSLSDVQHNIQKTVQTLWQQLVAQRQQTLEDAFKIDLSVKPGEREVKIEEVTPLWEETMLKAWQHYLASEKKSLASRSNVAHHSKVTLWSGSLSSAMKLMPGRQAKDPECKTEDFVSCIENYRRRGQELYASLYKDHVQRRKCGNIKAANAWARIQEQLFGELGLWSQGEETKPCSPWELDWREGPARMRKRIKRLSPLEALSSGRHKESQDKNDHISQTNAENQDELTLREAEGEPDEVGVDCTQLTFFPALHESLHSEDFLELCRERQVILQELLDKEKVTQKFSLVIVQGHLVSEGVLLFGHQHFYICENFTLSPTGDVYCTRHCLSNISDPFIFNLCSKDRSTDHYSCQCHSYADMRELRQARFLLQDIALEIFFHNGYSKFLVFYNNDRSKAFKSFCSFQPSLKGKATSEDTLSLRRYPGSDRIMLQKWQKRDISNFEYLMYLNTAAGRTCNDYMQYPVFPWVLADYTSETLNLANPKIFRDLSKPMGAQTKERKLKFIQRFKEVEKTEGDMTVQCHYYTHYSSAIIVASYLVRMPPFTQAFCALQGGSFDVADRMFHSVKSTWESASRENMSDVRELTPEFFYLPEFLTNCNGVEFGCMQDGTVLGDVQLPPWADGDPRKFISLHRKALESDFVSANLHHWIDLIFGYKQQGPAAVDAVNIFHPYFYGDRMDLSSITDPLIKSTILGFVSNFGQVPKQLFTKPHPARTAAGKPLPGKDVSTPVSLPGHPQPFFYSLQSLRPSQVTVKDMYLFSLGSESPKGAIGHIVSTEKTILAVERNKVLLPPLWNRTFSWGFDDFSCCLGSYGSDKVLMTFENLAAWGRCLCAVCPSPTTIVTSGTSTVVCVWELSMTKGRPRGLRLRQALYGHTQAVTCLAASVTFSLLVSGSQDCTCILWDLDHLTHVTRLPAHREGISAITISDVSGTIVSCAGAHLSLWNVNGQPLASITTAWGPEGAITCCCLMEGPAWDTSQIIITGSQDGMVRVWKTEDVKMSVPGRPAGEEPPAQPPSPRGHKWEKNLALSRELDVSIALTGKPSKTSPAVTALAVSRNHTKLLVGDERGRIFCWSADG
UniProt Q8IWA0: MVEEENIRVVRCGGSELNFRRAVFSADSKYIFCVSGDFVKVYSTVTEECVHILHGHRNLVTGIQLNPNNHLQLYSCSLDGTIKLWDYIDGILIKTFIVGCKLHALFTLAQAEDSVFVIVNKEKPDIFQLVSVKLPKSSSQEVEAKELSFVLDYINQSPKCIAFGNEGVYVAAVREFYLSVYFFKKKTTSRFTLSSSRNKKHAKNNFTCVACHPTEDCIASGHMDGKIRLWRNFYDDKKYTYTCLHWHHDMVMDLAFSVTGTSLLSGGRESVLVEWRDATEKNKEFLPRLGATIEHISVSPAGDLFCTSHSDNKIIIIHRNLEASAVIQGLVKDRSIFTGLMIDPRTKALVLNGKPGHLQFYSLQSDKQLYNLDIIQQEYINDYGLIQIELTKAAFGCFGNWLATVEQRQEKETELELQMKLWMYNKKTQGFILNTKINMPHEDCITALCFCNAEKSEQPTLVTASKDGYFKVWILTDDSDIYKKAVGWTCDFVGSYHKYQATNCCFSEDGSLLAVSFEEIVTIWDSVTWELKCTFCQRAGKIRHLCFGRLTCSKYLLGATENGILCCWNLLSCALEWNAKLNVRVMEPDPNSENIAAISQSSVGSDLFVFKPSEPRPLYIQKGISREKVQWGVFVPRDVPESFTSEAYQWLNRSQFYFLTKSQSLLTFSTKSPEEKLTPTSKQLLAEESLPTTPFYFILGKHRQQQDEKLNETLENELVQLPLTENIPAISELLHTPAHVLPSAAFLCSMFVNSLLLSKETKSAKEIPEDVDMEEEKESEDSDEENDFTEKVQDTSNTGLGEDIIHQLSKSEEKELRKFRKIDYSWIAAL
UniProt P98170, whole entry, looked up: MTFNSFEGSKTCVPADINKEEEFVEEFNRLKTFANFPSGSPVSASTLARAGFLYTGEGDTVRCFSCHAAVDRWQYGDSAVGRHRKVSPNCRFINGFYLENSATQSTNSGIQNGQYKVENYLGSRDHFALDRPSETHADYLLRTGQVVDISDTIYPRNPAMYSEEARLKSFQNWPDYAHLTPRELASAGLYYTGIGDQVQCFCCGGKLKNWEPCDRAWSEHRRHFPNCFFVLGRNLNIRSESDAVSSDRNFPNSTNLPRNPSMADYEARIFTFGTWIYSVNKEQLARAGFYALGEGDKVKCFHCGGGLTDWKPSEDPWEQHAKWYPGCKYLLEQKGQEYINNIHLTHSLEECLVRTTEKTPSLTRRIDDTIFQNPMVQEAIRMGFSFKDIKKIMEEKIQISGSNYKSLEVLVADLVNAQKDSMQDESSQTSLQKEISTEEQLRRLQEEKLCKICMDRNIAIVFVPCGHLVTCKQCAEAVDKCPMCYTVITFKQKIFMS
UniProt Q15061: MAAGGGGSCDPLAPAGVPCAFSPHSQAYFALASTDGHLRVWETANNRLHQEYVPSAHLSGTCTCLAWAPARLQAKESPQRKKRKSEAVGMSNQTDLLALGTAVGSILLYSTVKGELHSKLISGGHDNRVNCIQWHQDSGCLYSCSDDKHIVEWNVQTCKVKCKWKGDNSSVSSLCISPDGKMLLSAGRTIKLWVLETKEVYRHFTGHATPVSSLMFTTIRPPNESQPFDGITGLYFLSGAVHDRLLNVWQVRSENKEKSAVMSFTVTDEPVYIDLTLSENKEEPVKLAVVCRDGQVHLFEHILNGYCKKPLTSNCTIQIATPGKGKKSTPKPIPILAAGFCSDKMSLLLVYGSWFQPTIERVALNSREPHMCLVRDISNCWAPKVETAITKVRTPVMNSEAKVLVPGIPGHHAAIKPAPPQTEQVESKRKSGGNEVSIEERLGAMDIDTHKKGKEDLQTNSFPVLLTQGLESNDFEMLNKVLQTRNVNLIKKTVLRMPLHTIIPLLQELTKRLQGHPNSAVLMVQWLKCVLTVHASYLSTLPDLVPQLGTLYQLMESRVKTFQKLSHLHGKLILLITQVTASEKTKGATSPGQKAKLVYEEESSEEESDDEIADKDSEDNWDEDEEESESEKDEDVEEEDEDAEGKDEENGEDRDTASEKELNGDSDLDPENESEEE

Compound: Cc1cc(ccc1-c1ccccc1)C(=O)N1CCCN(CC1)C(=O)CCl [compound 10]
Test: probe-labelled cysteine peptide fold change vs DMSO (competition) (log2 fold change); higher = less target engagement (more negative = stronger competition)
Conditions: THP-1, incubation time: 4 h
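Further: competitive profiling in live THP-1 cells: cysteine peptides tagged with an iodoacetamide desthiobiotin (IA-DTB) probe, intensity after compound treatment relative to DMSO-treated cells.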

Row | Target | probe-labelled cysteine peptide fold change (10 µM) | probe-labelled cysteine peptide fold change (50 µM)
1 | WDR36_Q8NI36_463_ESDWDGIIACHQGK (UniProt Q8NI36) | -0.0625 | -0.0725
2 | WDR82_Q6UXN9_287_HTGPITCLQFNPK (UniProt Q6UXN9) | -0.00419 | -0.0934
3 | XPC_Q01831_680_DCVHTLHSR (UniProt Q01831) | 0.0816 | 0.0167
4 | XPC_Q01831_536_SIAGIDQWLEVFCEQEEK (UniProt Q01831) | 0.167 | 0.0258
5 | WRAP53_Q9BUR4_519_LQLWWCGGAPDSSIPDDHQGEK (UniProt Q9BUR4) | 0.0573 | 0.173
6 | WDR6_Q9NNW5_981_LGTPSLTLQAHSCGINSLHTLPTR (UniProt Q9NNW5) | 0.0732 | 0.149
7 | WDR37_Q9Y2I8_329_TANLYDVETSELVHSLTGHDQELTHCCTHPTQR (UniProt Q9Y2I8) | 0.139 | -0.257
8 | XPNPEP1_Q9NQW7_316_CCMPYTPICIAK (UniProt Q9NQW7) | 0.0364 | -0.0969
9 | WDR41_Q9HAD4_186_NCVVAAVGK (UniProt Q9HAD4) | 0.2 | 0.101
10 | WRN_Q14191_197_CSNWSK (UniProt Q14191) | -0.339 | -0.848
11 | WDR3_Q9UNX4_296_ILACHGTDSVLELFCILSK (UniProt Q9UNX4) | -0.000721 | 0.0273
12 | WDFY4_Q6ZS81_858_LYHEDHPQLSEEIQCSLASHIQSLVK (UniProt Q6ZS81) | -0.129 | -0.17
13 | WDR62_O43379_826_CLLTNGK (UniProt O43379) | -0.317 | -0.775
14 | WDR75_Q8IWA0_217_NNFTCVACHPTEDCIASGHMDGK (UniProt Q8IWA0) | 0.11 | -0.149
15 | WDR74_Q6RFH5_83_HCPGGEGMFR (UniProt Q6RFH5) | -0.0242 | 0.0642
16 | WDR76_Q9H967_81_NSNNEVACK (UniProt Q9H967) | -0.462 | -0.141
17 | XIAP_P98170_465+471_NIAIVFVPCGHLVTCK (UniProt P98170) | 0.0779 | -0.137
18 | WBP4_O75554_18_CWIADNRPSVEFHER (UniProt O75554) | -9.28e-05 | -0.155
19 | WDR75_Q8IWA0_451_INMPHEDCITALCFCNAEK (UniProt Q8IWA0) | 0.146 | 0.304
20 | WASHC5_Q12768_969_QQIANELNYSCR (UniProt Q12768) | 0.0159 | -0.000576
21 | WDR92_Q96MX6_339_GLCVCSSFDQTVR (UniProt Q96MX6) | 0.0179 | 0.0292

Row | Target | probe-labelled cysteine peptide fold change (10 µM) | probe-labelled cysteine peptide fold change (50 µM)
22 | WDR47_O94967_695_VLPFNAETCNATGPDLEFSMHDGTIR (UniProt O94967) | -0.0784 | 0.226
23 | XPNPEP1_Q9NQW7_502_SALWDSGLDYLHGTGHGVGSFLNVHEGPCGISYK (UniProt Q9NQW7) | 0.209 | 0.258
24 | WNK1_Q9H4A3_1135_VVECQLETHNRK (UniProt Q9H4A3) | 0.208 | 0.14
25 | WDR11_Q9BZH6_473_MCPPLTTK (UniProt Q9BZH6) | 0.0578 | -0.0661
26 | WDFY4_Q6ZS81_2449_HCLSNISDPFIFNLCSK (UniProt Q6ZS81) | -0.171 | -0.206
27 | WDR41_Q9HAD4_99_ITAIITFPSLESCEEK (UniProt Q9HAD4) | 0.176 | -0.157
28 | WDR62_O43379_376_KAEAVYPDTVALTFDPIHQWLSCVYK (UniProt O43379) | 0.316 | 0.164
29 | WDR43_Q15061_131_VNCIQWHQDSGCLYSCSDDK (UniProt Q15061) | -0.0334 | 0.0669
30 | WDR4_P57081_95_TKPWQCLSVR (UniProt P57081) | -0.151 | -0.0446
31 | WDR1_O75083_382_MTVDESGQLISCSMDDTVR (UniProt O75083) | 0.0605 | 0.328
32 | WDR1_O75083_225_VCALGGSK (UniProt O75083) | -0.113 | -0.12
33 | WDR43_Q15061_372_EPHMCLVR (UniProt Q15061) | -0.0383 | -0.00313
34 | WDR82_Q6UXN9_195_TCEWTGLK (UniProt Q6UXN9) | -0.0459 | 0.418
35 | XIAP_P98170_213_NWEPCDR (UniProt P98170) | -0.0911 | -0.654
36 | XPNPEP1_Q9NQW7_46_NSEYVTEPIQAYIIPSGDAHQSEYIAPCDCRR (UniProt Q9NQW7) | 0.194 | 0.404
37 | WDR75_Q8IWA0_444+451_INMPHEDCITALCFCNAEK (UniProt Q8IWA0) | 0.028 | -0.701
38 | WNK4_Q96J92_412_EIIEGCIR (UniProt Q96J92) | 0.155 | 0.0648
39 | WDR33_Q9C0J8_220_FATCSDDGTVR (UniProt Q9C0J8) | -0.203 | 0.0532
40 | XPC_Q01831_514_MCSDGEK (UniProt Q01831) | -0.13 | -0.508
41 | WDR48_Q8TAF3_366_GGASIIQCHILNDKR (UniProt Q8TAF3) | 0.239 | -0.0402
42 | WNK3_Q9BYP7_278_CDNIFITGPTGSVK (UniProt Q9BYP7) | -0.0357 | -0.0535
